Values of other authors in US11564902B2, “Extended duration local anesthetic formulation” (Ventis Pharma, priority 2015, dated 2023).
Like-named read-outs stand apart in the source and are kept apart here.

Conditions: cited from earlier work; for toxic dose: intravascular absorption

CCN(CC)CC(=O)Nc1c(C)cccc1C [lidocaine]
generally accepted toxic dose (with epinephrine solution, total dose): 7 mg per kg
toxic dose (with epinephrine): 7 mg/kg
toxic dose (without epinephrine): 3 mg per kilogram
